# Experimental data taken from the supplement of paper PMC8728848.
# This is one part of the list.
# Columns and labels:
# Experiment in all cases: glycan array binding signal (z-score within array); higher = stronger binding
# Conditions in all cases: glycan notation: IUPAC condensed, linker removed
# Gal(a1-3)Gal = biological target: Gal(a1-3)Gal
# How it was run: (§1)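 From the Consortium for Functional Glycomics database, 3228 arrays were curated, keeping only those whose protein sequence was available. Binding is given as a within-array Z-score averaged across arrays sharing a protein sequence and across linkers. Negative Z-scores can be read as non-binding.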
# Gal(a1-3)Gal(b1-3)GlcNAc = biological target: Gal(a1-3)Gal(b1-3)GlcNAc
# How it was run: as §1
# [1] = biological target: Gal(a1-3)Gal(b1-3)GlcNAc(b1-2)Man(a1-3)[Gal(a1-3)Gal(b1-3)GlcNAc(b1-2)Man(a1-6)]Man(b1-4)GlcNAc(b1-4)GlcNAc
# How it was run: as §1
# [2] = biological target: Gal(a1-3)Gal(b1-3)GlcNAc(b1-3)GalNAc
# How it was run: as §1
# [3] = biological target: Gal(a1-3)Gal(b1-3)[Fuc(a1-4)]GlcNAc(b1-2)Man(a1-3)[Gal(a1-3)Gal(b1-3)[Fuc(a1-4)]GlcNAc(b1-2)Man(a1-6)]Man(b1-4)GlcNAc(b1-4)GlcNAc
# How it was run: as §1
# Gal(a1-3)Gal(b1-4)Glc = biological target: Gal(a1-3)Gal(b1-4)Glc
# How it was run: as §1
# Gal(a1-3)Gal(b1-4)GlcNAc = biological target: Gal(a1-3)Gal(b1-4)GlcNAc
# How it was run: as §1
# [4] = biological target: Gal(a1-3)Gal(b1-4)GlcNAc(b1-3)GalNAc
# How it was run: as §1
# [5] = biological target: Gal(a1-3)Gal(b1-4)[Fuc(a1-3)]GlcNAc
# How it was run: as §1
# [6] = biological target: Gal(a1-3)Gal(b1-4)[Fuc(a1-3)]GlcNAc(b1-2)Man(a1-3)[Gal(a1-3)Gal(b1-4)[Fuc(a1-3)]GlcNAc(b1-2)Man(a1-6)]Man(b1-4)GlcNAc(b1-4)GlcNAc
# How it was run: as §1
# Gal(a1-3)GalNAc = biological target: Gal(a1-3)GalNAc
# How it was run: as §1
# [7] = biological target: Gal(a1-3)[Gal(a1-4)]Gal(b1-4)GlcNAc
# How it was run: as §1
# [8] = biological target: Gal(a1-4)Gal(b1-3)GlcNAc(b1-2)Man(a1-3)[Gal(a1-4)Gal(b1-3)GlcNAc(b1-2)Man(a1-6)]Man(b1-4)GlcNAc(b1-4)GlcNAc
# How it was run: as §1
# Gal(a1-4)Gal(b1-4)Glc = biological target: Gal(a1-4)Gal(b1-4)Glc
# How it was run: as §1
# Gal(a1-4)Gal(b1-4)GlcNAc = biological target: Gal(a1-4)Gal(b1-4)GlcNAc
# How it was run: as §1
# [9] = biological target: Gal(a1-4)Gal(b1-4)GlcNAc(b1-2)Man(a1-3)[Gal(a1-4)Gal(b1-4)GlcNAc(b1-2)Man(a1-6)]Man(b1-4)GlcNAc(b1-4)GlcNAc
# How it was run: as §1
# [10] = biological target: Gal(a1-4)Gal(b1-4)GlcNAc(b1-3)Gal(b1-4)Glc
# How it was run: as §1
# Gal(a1-4)GlcNAc = biological target: Gal(a1-4)GlcNAc
# How it was run: as §1
# Gal(a1-6)Glc = biological target: Gal(a1-6)Glc
# How it was run: as §1
# Gal(b1-2)Gal = biological target: Gal(b1-2)Gal
# How it was run: as §1
# Gal(b1-3)Gal = biological target: Gal(b1-3)Gal
# How it was run: as §1
# Gal(b1-3)Gal(b1-4)GlcNAc = biological target: Gal(b1-3)Gal(b1-4)GlcNAc
# How it was run: as §1
# [11] = biological target: Gal(b1-3)Gal(b1-4)GlcNAc(b1-2)Man(a1-3)[Gal(b1-3)Gal(b1-4)GlcNAc(b1-2)Man(a1-6)]Man(b1-4)GlcNAc(b1-4)GlcNAc
# How it was run: as §1
# Gal(b1-3)GalNAc = biological target: Gal(b1-3)GalNAc
# How it was run: as §1
# [12] = biological target: Gal(b1-3)GalNAc(a1-3)[Fuc(a1-2)]Gal(b1-4)Glc
# How it was run: as §1
# [13] = biological target: Gal(b1-3)GalNAc(a1-3)[Fuc(a1-2)]Gal(b1-4)GlcNAc
# How it was run: as §1
# [14] = biological target: Gal(b1-3)GalNAc(b1-3)Gal(a1-4)Gal(b1-4)Glc
# How it was run: as §1
# [15] = biological target: Gal(b1-3)GalNAc(b1-4)Gal(b1-4)Glc
# How it was run: as §1
# [16] = biological target: Gal(b1-3)GalNAc(b1-4)[Neu5Ac(a2-3)]Gal(b1-4)Glc
# How it was run: as §1
# Gal(b1-3)GlcNAc = biological target: Gal(b1-3)GlcNAc
# How it was run: as §1
# [17] = biological target: Gal(b1-3)GlcNAc(a1-6)Gal(b1-4)GlcNAc
# How it was run: as §1
# [18] = biological target: Gal(b1-3)GlcNAc(b1-2)Man(a1-3)[Gal(b1-3)GlcNAc(b1-2)Man(a1-6)]Man(b1-4)GlcNAc(b1-4)GlcNAc
# How it was run: as §1
# [19] = biological target: Gal(b1-3)GlcNAc(b1-2)Man(a1-3)[Gal(b1-3)GlcNAc(b1-2)Man(a1-6)]Man(b1-4)GlcNAc(b1-4)[Fuc(a1-6)]GlcNAc
# How it was run: as §1
# [20] = biological target: Gal(b1-3)GlcNAc(b1-2)[Gal(b1-3)GlcNAc(b1-6)]Man(a1-6)[Gal(b1-3)GlcNAc(b1-2)Man(a1-3)]Man(b1-4)GlcNAc(b1-4)GlcNAc
# How it was run: as §1
# [21] = biological target: Gal(b1-3)GlcNAc(b1-3)Gal(b1-3)GlcNAc
# How it was run: as §1
# [22] = biological target: Gal(b1-3)GlcNAc(b1-3)Gal(b1-4)Glc
# How it was run: as §1
# [23] = biological target: Gal(b1-3)GlcNAc(b1-3)Gal(b1-4)GlcNAc
# How it was run: as §1
# [24] = biological target: Gal(b1-3)GlcNAc(b1-3)Gal(b1-4)GlcNAc(b1-6)[Gal(b1-3)GlcNAc(b1-3)]Gal(b1-4)Glc
# How it was run: as §1
# [25] = biological target: Gal(b1-3)GlcNAc(b1-3)Gal(b1-4)[Fuc(a1-3)]GlcNAc(b1-6)[Gal(b1-3)GlcNAc(b1-3)]Gal(b1-4)Glc
# How it was run: as §1
# [26] = biological target: Gal(b1-3)GlcNAc(b1-3)GalNAc
# How it was run: as §1
# [27] = biological target: Gal(b1-3)GlcNAc(b1-6)Gal(b1-4)GlcNAc
# How it was run: as §1
# [28] = biological target: Gal(b1-3)[Fuc(a1-4)]GlcNAc
# How it was run: as §1
# [29] = biological target: Gal(b1-3)[Fuc(a1-4)]GlcNAc(b1-2)Man(a1-3)[Gal(b1-3)[Fuc(a1-4)]GlcNAc(b1-2)Man(a1-6)]Man(b1-4)GlcNAc(b1-4)GlcNAc
# How it was run: as §1
# [30] = biological target: Gal(b1-3)[Fuc(a1-4)]GlcNAc(b1-2)Man(a1-3)[Gal(b1-3)[Fuc(a1-4)]GlcNAc(b1-2)Man(a1-6)]Man(b1-4)GlcNAc(b1-4)[Fuc(a1-6)]GlcNAc
# How it was run: as §1
# [31] = biological target: Gal(b1-3)[Fuc(a1-4)]GlcNAc(b1-3)Gal(b1-3)[Fuc(a1-4)]GlcNAc
# How it was run: as §1
binder,measurement,setting,value
"Flo11 (Saccharomyces cerevisiae), P08640 (protein) MQRPFLLAYLVLSLLFNSALGFPTALVPRGSSEGTSCNSIVNGCPNLDFNWHMDQQNIMQYTLDVTSVSWVQDNTYQITIHVKGKENIDLKYLWSLKIIGVTGPKGTVQLYGYNENTYLIDNPTDFTATFEVYATQDVNSCQVWMPNFQIQFEYLQGSAAQYASSWQWGTTSFDLSTGCNNYDNQGHSQTDFPGFYWNIDCDNNCGGTKSSTTTSSTSESSTTTSSTSESSTTTSSTSESSTTTSSTSESSTSSSTTAPATPTTTSCTKEKPTPPTTTSCTKEKPTPPHHDTTPCTKKKTTTSKTCTKKTTTPVPTPSSSTTESSSAPVPTPSSSTTESSSAPVTSSTTESSSAPVPTPSSSTTESSSAPVTSSTTESSSAPVTSSTTESSSAPVPTPSSSTTESSSAPVTSSTTESSSAPVTSSTTESSSAPVTSSTTESSSAPVTSSTTESSSAPVPTPSSSTTESSSAPVTSSTTESSSAPVPTPSSSTTESSSAPVTSSTTESSSAPVPTPSSSTTESSSAPAPTPSSSTTESSSAPVTSSTTESSSAPVPTPSSSTTESSSTPVTSSTTESSSAPVPTPSSSTTESSSAPVPTPSSSTTESSSAPAPTPSSSTTESSSAPVTSSTTESSSAPVPTPSSSTTESSSAPVPTPSSSTTESSSAPVPTPSSSTTESSSAPVTSSTTESSSAPVTSSTTESSSAPVPTPSSSTTESSSAPVPTPSSSTTESSSAPVPTPSSSTTESSSAPVTSSTTESSSAPVPTPSSSTTESSSAPVPTPSSSTTESSSAPVPTPSSSTTESSVAPVPTPSSSSNITSSAPSSTPFSSSTESSSVPVPTPSSSTTESSSAPVSSSTTESSVAPVPTPSSSSNITSSAPSSIPFSSTTESFSTGTTVTPSSSKYPGSQTETSVSSTTETTIVPTKTTTSVTTPSTTTITTTVCSTGTNSAGETTSGCSPKTVTTTVPTTTTTSVTTSSTTTITTTVCSTGTNSAGETTSGCSPKTITTTVPCSTSPSETASESTTTSPTTPVTTVVSTTVVTTEYSTSTKPGGEITTTFVTKNIPTTYLTTIAPTPSVTTVTNFTPTTITTTVCSTGTNSAGETTSGCSPKTVTTTVPCSTGTGEYTTEATTLVTTAVTTTVVTTESSTGTNSAGKTTTGYTTKSVPTTYVTTLAPSAPVTPATNAVPTTITTTECSAATNAAGETTSVCSAKTIVSSASAGENTAPSATTPVTTAIPTTVITTESSVGTNSAGETTTGYTTKSIPTTYITTLIPGSNGAKNYETVATATNPISIKTTSQLATTASASSVAPVVTSPSLTGPLQSASGSAVATYSVPSISSTYQGAANIKVLGNFMWLLLALPVVF",glycan array binding signal (z-score),Gal(a1-3)Gal,-0.443
same,glycan array binding signal (z-score),Gal(a1-3)Gal(b1-3)GlcNAc,0.237
same,glycan array binding signal (z-score),[1],0.723
same,glycan array binding signal (z-score),[2],-0.408
same,glycan array binding signal (z-score),[3],0.122
same,glycan array binding signal (z-score),Gal(a1-3)Gal(b1-4)Glc,-0.454
same,glycan array binding signal (z-score),Gal(a1-3)Gal(b1-4)GlcNAc,-0.491
same,glycan array binding signal (z-score),[4],-0.434
same,glycan array binding signal (z-score),[5],-0.437
same,glycan array binding signal (z-score),[6],1.4
same,glycan array binding signal (z-score),Gal(a1-3)GalNAc,-0.545
same,glycan array binding signal (z-score),[7],0.144
same,glycan array binding signal (z-score),[8],-0.042
same,glycan array binding signal (z-score),Gal(a1-4)Gal(b1-4)Glc,-0.684
same,glycan array binding signal (z-score),Gal(a1-4)Gal(b1-4)GlcNAc,-0.103
same,glycan array binding signal (z-score),[9],0.617
same,glycan array binding signal (z-score),[10],0.408
same,glycan array binding signal (z-score),Gal(a1-4)GlcNAc,-0.72
same,glycan array binding signal (z-score),Gal(a1-6)Glc,-0.453
same,glycan array binding signal (z-score),Gal(b1-2)Gal,-1.32
same,glycan array binding signal (z-score),Gal(b1-3)Gal,-0.531
same,glycan array binding signal (z-score),Gal(b1-3)Gal(b1-4)GlcNAc,0.164
same,glycan array binding signal (z-score),[11],0.049
same,glycan array binding signal (z-score),Gal(b1-3)GalNAc,0.012
same,glycan array binding signal (z-score),[12],0.782
same,glycan array binding signal (z-score),[13],-0.07
same,glycan array binding signal (z-score),[14],-0.275
same,glycan array binding signal (z-score),[15],-0.689
same,glycan array binding signal (z-score),[16],-0.366
same,glycan array binding signal (z-score),Gal(b1-3)GlcNAc,-1.14
same,glycan array binding signal (z-score),[17],-0.168
same,glycan array binding signal (z-score),[18],-0.157
same,glycan array binding signal (z-score),[19],-0.209
same,glycan array binding signal (z-score),[20],-0.917
same,glycan array binding signal (z-score),[21],-1.14
same,glycan array binding signal (z-score),[22],0.819
same,glycan array binding signal (z-score),[23],-0.473
same,glycan array binding signal (z-score),[24],1
same,glycan array binding signal (z-score),[25],1.49
same,glycan array binding signal (z-score),[26],2.03
same,glycan array binding signal (z-score),[27],2.02
same,glycan array binding signal (z-score),[28],-0.478
same,glycan array binding signal (z-score),[29],-0.241
same,glycan array binding signal (z-score),[30],0.671
same,glycan array binding signal (z-score),[31],-0.512
